Assay results reported in PubChem BioAssay AID298 (DTP/NCI, 2004).
The list does not hold the whole screen: it is rich in T/C values a quarter to a half above the control, in often repeated tests (any T/C) and in doses without a T/C. Further doses and runs are listed elsewhere. T/C: endpoint of the treated group in % of that of the vehicle group. Schedule codes are those of the source, taken here to give the interval after Q, in days (D) or hours (H), and the number of doses after X. Some T/C values are followed by the survivors on the day toxicity was checked, most often the fifth; where none is given, no animal had died by that day. Some values lie below zero, which means that the treated tumours became smaller. Some doses have a count of surviving animals in place of a T/C: the source holds a T/C of zero for them, seemingly a mark for toxic or unscored doses. Counts of survivors are from the toxicity check (mostly the fifth day) where no day follows; animals may have died later. Some entries hold several experiments; the results are listed from low to high.

Test system: MX-1 breast xenograft, intrarenal, nude mice, tumor weight
Assay: NCI In Vivo Anticancer Drug Screen. Data for tumor model Human Mammary Carcinoma MX-1 Xenograft (intrarenal inoculation) in NU/NU BALB/C (nude) mice
Conditions: T/C endpoint: mean tumor weight change, higher T/C = larger tumour; for T/C: evaluated on day 11
Method: The antitumor activity of compounds was measured in mice bearing transplantable tumors. Survival or tumor size were measured and the results are expressed as the measurement made in the treated group (T) divided by the measurement made in the vehicle treated control group (C). The tumor model used in this assay is Human Mammary Carcinoma MX-1 Xenograft (intrarenal inoculation) in NU/NU BALB/C (nude) mice

[1] = dose: 1200.0 mg/kg/injection, schedule: Q04DX003 (ip), vehicle: Klucel (hydroxypropylcellulose) (HPC)
[2] = dose: 200.0 mg/kg/injection, schedule: Q04DX003 (sc), vehicle: saline
[3] = dose: 300.0 mg/kg/injection, schedule: Q04DX003 (ip), vehicle: Klucel (hydroxypropylcellulose) (HPC)
[4] = dose: 200.0 mg/kg/injection, schedule: Q04DX003 (ip), vehicle: saline with Tween-80
[5] = dose: 100.0 mg/kg/injection, schedule: Q04DX003 (ip), vehicle: water
[6] = dose: 12.5 mg/kg/injection, schedule: Q04DX003 (ip), vehicle: water

SMILES: O=C(O)CCCc1ccc(N(CCCl)CCCl)cc1
- survivor count (dose: 27.0 mg/kg/injection, schedule: Q04DX003 (ip), vehicle: Klucel (hydroxypropylcellulose) (HPC)): 1 of 5 on day 11

SMILES: [N-]=[N+]=CC(=O)CCC(NC(=O)OCc1ccccc1)C(=O)OCc1ccccc1 (stereo not given)
- survivor count (dose: 600.0 mg/kg/injection, schedule: Q04DX003 (ip), vehicle: Klucel (hydroxypropylcellulose) (HPC)): 3 of 6 on day 11
- survivor count [1]: 0 of 6 on day 11

SMILES: CC1(C)CC(=O)C(CSC(=O)c2ccccc2)C(=O)C1
- survivor count (dose: 600.0 mg/kg/injection, schedule: Q04DX003 (sc), vehicle: Klucel (hydroxypropylcellulose) (HPC)): 1 of 6 on day 11

SMILES: CC(C)(C)c1cc2c3c(c1)Oc1cc(C(C)(C)C)cc4c1C3(O)c1c(cc(C(C)(C)C)cc1O4)O2
- T/C (dose: 12.5 mg/kg/injection, schedule: Q04DX003 (ip), vehicle: Klucel (hydroxypropylcellulose) (HPC)): 132 % of control
- survivor count (dose: 25.0 mg/kg/injection, schedule: Q04DX003 (ip), vehicle: Klucel (hydroxypropylcellulose) (HPC)): 0 of 6 on day 11
- survivor count (dose: 50.0 mg/kg/injection, schedule: Q04DX003 (ip), vehicle: Klucel (hydroxypropylcellulose) (HPC)): 0 of 6 on day 11
- survivor count (dose: 100.0 mg/kg/injection, schedule: Q04DX003 (ip), vehicle: Klucel (hydroxypropylcellulose) (HPC)): 0 of 6 on day 11

SMILES: CN(N=O)C(N)=O
- T/C (dose: 25.0 mg/kg/injection, schedule: Q04DX003 (sc), vehicle: saline): 144 % of control
- T/C (dose: 50.0 mg/kg/injection, schedule: Q04DX003 (sc), vehicle: saline): 142 % of control
- survivor count (dose: 100.0 mg/kg/injection, schedule: Q04DX003 (sc), vehicle: saline with Tween-80): 2 of 6 on day 11
- survivor count (dose: 200.0 mg/kg/injection, schedule: Q04DX003 (sc), vehicle: saline with Tween-80): 0 of 6 on day 11
- T/C [2]: 136 % of control
- survivor count [2]: 0 of 6 on day 11
- survivor count (dose: 400.0 mg/kg/injection, schedule: Q04DX003 (sc), vehicle: saline with Tween-80): 0 of 6 on day 11

SMILES: O=CC(NC(=O)N(CCCl)N=O)C(O)C(O)C(O)CO (stereo not given)
- survivor count (dose: 12.0 mg/kg/injection, schedule: Q01DX010 (sc), vehicle: Klucel (hydroxypropylcellulose) (HPC)): 1 of 3 on day 11
- survivor count (dose: 24.0 mg/kg/injection, schedule: Q01DX010 (sc), vehicle: Klucel (hydroxypropylcellulose) (HPC)): 0 of 3 on day 11

SMILES: COc1cc2c(cc1OC)[C@@H]1C(=O)c3ccc4c(c3O[C@@H]1CO2)C[C@H](C(C)C)O4
- survivor count [3]: 0 of 6 on day 11

SMILES: O=C(CCCN1CCC(C(O)c2ccc(F)cc2)CC1)c1ccc(F)cc1 (stereo not given)
- survivor count (dose: 100.0 mg/kg/injection, schedule: Q04DX003 (ip), vehicle: saline with Tween-80): 3 of 6 on day 11
- survivor count [4]: 0 of 6 on day 11

SMILES: COc1cc(C2=NCCc3cc4c(cc32)OCO4)cc(OC)c1OC
- survivor count (dose: 300.0 mg/kg/injection, schedule: Q04DX003 (ip), vehicle: saline + alcohol): 1 of 6 on day 11
- survivor count (dose: 600.0 mg/kg/injection, schedule: Q04DX003 (ip), vehicle: saline + alcohol): 0 of 6 on day 11

SMILES: CC(C)CCC(=O)c1ccoc1
- survivor count (dose: 6.0 mg/kg/injection, schedule: Q01DX010 (ip), vehicle: saline with Tween-80): 0 of 6 on day 11

SMILES: COc1ccc2c(c1)-c1nn(CCCN(C)C)c3ccc([N+](=O)[O-])c(c13)N2
- survivor count [5]: 1 of 6 on day 11 and 2 of 6 on day 11
- survivor count (dose: 200.0 mg/kg/injection, schedule: Q04DX003 (ip), vehicle: water): 0 of 6 on day 11

SMILES: NC(=S)N/N=C/c1ncccc1O
- survivor count (dose: 600.0 mg/kg/injection, schedule: Q04DX003 (ip), vehicle: suspension in saline): 2 of 6 on day 11
- survivor count (dose: 1200.0 mg/kg/injection, schedule: Q04DX003 (ip), vehicle: suspension in saline): 0 of 6 on day 11

SMILES: COC(COC(=O)N1CCN(C=O)CC1)C1=C(N2CC2)C(=O)C(C)=C(N2CC2)C1=O (stereo not given)
- survivor count (dose: 24.0 mg/kg/injection, schedule: Q04DX003 (ip), vehicle: saline): 0 of 6 on day 11 and 1 of 6 on day 11

SMILES: Oc1c(Cl)cc(Cl)cc1C=NCCSc1ccc(Cl)cc1
- T/C [3]: 126 % of control
- survivor count [1]: 0 of 6 on day 11 and 3 of 6 on day 11

SMILES: O=NNc1ccccn1
- T/C (dose: 8.0 mg/kg/injection, schedule: Q01DX010 (sc), vehicle: saline): 145 % of control [2 of 2 alive on day 11]

SMILES: CNC(=S)C#N
- survivor count (dose: 150.0 mg/kg/injection, schedule: Q04DX003 (ip), vehicle: saline + Tween-80 + alcohol): 1 of 6 on day 11
- survivor count (dose: 300.0 mg/kg/injection, schedule: Q04DX003 (ip), vehicle: saline + Tween-80 + alcohol): 0 of 6 on day 11
- survivor count (dose: 600.0 mg/kg/injection, schedule: Q04DX003 (ip), vehicle: saline + Tween-80 + alcohol): 0 of 6 on day 11

SMILES: CCCNC1=C(C)C(=O)C2=C(C1=O)[C@H](COC(N)=O)[C@]1(OC)[C@@H]3N[C@@H]3CN21
- survivor count (dose: 24.0 mg/kg/injection, schedule: Q04DX003 (sc), vehicle: saline): 0 of 6 on day 11

SMILES: COc1cc(C2CC(C)(O)Oc3cc4c(cc32)OCO4)cc(OC)c1OC (stereo not given)
- survivor count [4]: 2 of 6 on day 11
- survivor count (dose: 400.0 mg/kg/injection, schedule: Q04DX003 (ip), vehicle: saline with Tween-80): 2 of 6 on day 11
- survivor count (dose: 800.0 mg/kg/injection, schedule: Q04DX003 (ip), vehicle: saline with Tween-80): 1 of 6 on day 11

SMILES: CNCCN=c1ccc2c3c1c(O)c1c(O)ccc(=O)c1c3[nH]n2CCNCCO
- T/C [6]: -78 % of control [5 of 6 alive on day 11]
- survivor count [6]: 1 of 6 on day 11 and 2 of 6 on day 11
- survivor count (dose: 25.0 mg/kg/injection, schedule: Q04DX003 (ip), vehicle: water): 0 of 6 on day 11
- survivor count (dose: 50.0 mg/kg/injection, schedule: Q04DX003 (ip), vehicle: water): 0 of 6 on day 11
- survivor count [5]: 0 of 6 on day 11

SMILES: O=C1CCC(=O)N1CO
- survivor count (dose: 1200.0 mg/kg/injection, schedule: Q04DX003 (sc), vehicle: saline): 2 of 6 on day 11
- survivor count (dose: 2400.0 mg/kg/injection, schedule: Q04DX003 (sc), vehicle: saline): 0 of 6 on day 11

SMILES: O=C1CN(CCN2CC(=O)N(CN3CCOCC3)C(=O)C2)CC(=O)N1CN1CCOCC1
- survivor count (dose: 600.0 mg/kg/injection, schedule: Q04DX003 (ip), vehicle: water): 0 of 6 on day 11
- survivor count (dose: 1200.0 mg/kg/injection, schedule: Q04DX003 (ip), vehicle: water): 0 of 6 on day 11

SMILES: CNc1nc(NC)nc(NC)n1
- survivor count (dose: 200.0 mg/kg/injection, schedule: Q01DX010 (sc), vehicle: Klucel (hydroxypropylcellulose) (HPC)): 1 of 2 on day 11
- survivor count (dose: 400.0 mg/kg/injection, schedule: Q01DX010 (sc), vehicle: Klucel (hydroxypropylcellulose) (HPC)): 0 of 2 on day 11

SMILES: NC(=O)CCC(N)C(=O)O (stereo not given)
- T/C (dose: 75.0 mg/kg/injection, schedule: Q04DX003 (ip), vehicle: suspension in saline): 137 % of control

SMILES: N#CC(=C1SCS1)[N+](=O)[O-]
- T/C (dose: 24.0 mg/kg/injection, schedule: Q04DX003 (sc), vehicle: saline with Tween-80): 137 % of control
- T/C (dose: 48.0 mg/kg/injection, schedule: Q04DX003 (sc), vehicle: saline with Tween-80): 130 % of control
- survivor count (dose: 96.0 mg/kg/injection, schedule: Q04DX003 (sc), vehicle: saline with Tween-80): 3 of 6 on day 11
- survivor count (dose: 192.0 mg/kg/injection, schedule: Q04DX003 (sc), vehicle: saline with Tween-80): 0 of 6 on day 11

SMILES: COc1cc2cc3c(c(O)c2c(O)c1/C=C/C(C)C)C(=O)CC(C)(OC(C)=O)C3 (stereo not given)
- survivor count (dose: 40.0 mg/kg/injection, schedule: Q04DX003 (ip), vehicle: Klucel (hydroxypropylcellulose) (HPC)): 0 of 6 on day 11
